Data taken from PubChem BioAssay AID1487 (National Center for Advancing Translational Sciences (NCATS), 2009).
The list shows a part of the results. Further columns of the screen follow, without active or inactive calls. The list favours compounds with an active or inconclusive main result. The note in brackets gives the kind of curve behind each potency; many fits are weak.

Assay: qHTS Assay for Modulators of Lamin A Splicing
Conditions: HeLa LMNA splicing GFP/RFP minigene ratio, 48 h
Method in brief: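 S3 HeLa cells stably expressing lamin A-EGFP splicing minigene plus DsRed2, 600 cells/well, 48 h compound exposure at 37C. Laser-scanning cytometry; analysed as GFP (500-530 nm)/RFP (575-640 nm) total intensity ratio; 0.5% DMSO vehicle.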

[1] = measured here: GFP splicing reporter channel
[2] = measured here: RFP viability control channel

C=CCN(CC=C)CCOc1ccccc1F
AC50 [1]: 0.00355 µM [falling, full curve, poor fit]

O=C(CN(Cc1ccccc1)C(=O)c1ccc2c(c1)OCCO2)NCc1ccc2c(c1)OCO2
AC50 [1]: 8.91 µM [rising, single point]

COC/C=C/C1=CC2=CC(=O)C(C)(OC(=O)c3cnc4ccccc4n3)C(=O)C2=CN1C(CO)CO (configuration not stated)
AC50 [2]: 0.00708 µM [falling, full curve, poor fit]

O=C(Nc1ccc(S(=O)(=O)Nc2ncccn2)cc1)C1=NN(c2ccccc2)C(=O)CC1
AC50 [1]: 0.0794 µM [rising, partial curve, poor fit] | AC50 [2]: 0.112 µM [rising, full curve, poor fit]

COc1ccc(Cc2noc(-c3ccc(OC)c(OC)c3)n2)cc1OC
AC50 [2]: 20 µM [rising, single point]

CC(=O)Nc1ccc(S(=O)(=O)N2CCSC2c2ccc(Cl)cc2)cc1 (configuration not stated)
AC50 [2]: 11.2 µM [rising, partial curve]

Cc1ccc(C)c(CSc2c(C(C)C)cnc3c2c(=O)n(C)c(=O)n3C)c1
AC50 [1]: 1.78 µM [rising, partial curve] | AC50 [2]: 2.82 µM [rising, full curve]

Cn1c(C(=O)N2CCC(C(=O)N3CCN(Cc4ccc5c(c4)OCO5)CC3)CC2)cc2sccc21
AC50 [2]: 12.6 µM [rising, partial curve]

CC(C)N1CSC(=S)N(Cc2ccccc2)C1
AC50 [1]: 0.501 µM [falling, partial curve]

O=C(/C=C/c1ccccc1)Nn1c(-c2cccs2)nc2ccccc2c1=O
AC50 [2]: 2.82 µM [rising, full curve, poor fit]

COc1ccc(N2CCN(C(CNC(=O)c3ccc(C)cc3)c3ccc4c(c3)OCO4)CC2)cc1 (configuration not stated)
AC50 [1]: 20 µM [falling, partial curve] | AC50 [2]: 22.4 µM [falling, partial curve, poor fit]

Cc1cccc(C(=O)Nc2ccccc2SCC(=O)Nc2ccc(C)c(Cl)c2)c1
AC50 [1]: 35.5 µM [rising, single point] | AC50 [2]: 20 µM [rising, single point]

O=C(CCn1c(SCC(=O)c2ccccc2)nc2ccccc2c1=O)NCc1ccc(F)cc1
AC50 [1]: 2.82 µM [falling, partial curve] | AC50 [2]: 3.16 µM [falling, partial curve]

CN1C(=O)NC(c2ccccc2)(C(F)(F)F)S/C1=C(/C#N)c1nnc(N2CCOCC2)n1-c1ccccc1 (configuration not stated)
AC50 [2]: 12.6 µM [rising, partial curve, poor fit]

Cc1ccc2nc(CSc3nnc4ccccn34)cc(=O)n2c1
AC50 [1]: 0.631 µM [rising, partial curve]

COc1ccc(CCCC(=O)O)c(C)c1
AC50 [1]: 14.1 µM [falling, single point]

Oc1ccc(-c2csc(-c3ccccc3)n2)cc1O
AC50 [2]: 31.6 µM [rising, single point]

CC(C)c1ccc(S(=O)(=O)N2CCN(C(=O)c3ccco3)CC2)cc1
AC50 [1]: 0.794 µM [falling, partial curve, poor fit] | AC50 [2]: 1.41 µM [falling, full curve, poor fit]

COc1ccc2nc(Nc3nc(C)c(C(C)=O)s3)sc2c1
AC50 [1]: 5.62 µM [rising, full curve] | AC50 [2]: 6.31 µM [rising, full curve]

Cc1cc(NC(=O)Nc2cccc(C(F)(F)F)c2)no1
AC50 [1]: 20 µM [rising, partial curve] | AC50 [2]: 35.5 µM [rising, single point]

CC(C)=CCOc1ccc(/C=C/C(=O)c2ccc(OCC=C(C)C)cc2OCC(=O)O)cc1
AC50 [1]: 10 µM [falling, partial curve, poor fit]

COc1ccc(S(=O)(=O)Nc2cc(C(=O)NC3CCCCCC3)ccc2N2CCOCC2)cc1
AC50 [1]: 35.5 µM [rising, single point] | AC50 [2]: 15.8 µM [rising, single point]

O=[N+]([O-])c1cccc(-n2cccc2/C=N/Nc2nc(N3CCCCC3)nc(N3CCCCC3)n2)c1
AC50 [2]: 0.708 µM [falling, full curve]

N/C(=N\OC(=O)c1ccc(Br)cc1)c1ccncc1
AC50 [2]: 35.5 µM [rising, partial curve, poor fit]

CC(C)Cc1nc2oc3c(=O)[nH]cnc3c2c2c1CCC2
AC50 [1]: 10 µM [rising, partial curve, poor fit]

O=C(CSc1ncn[nH]1)Nc1ccc2c(c1)CCC2
AC50 [1]: 6.31 µM [rising, partial curve, poor fit] | AC50 [2]: 35.5 µM [rising, single point]

O=C(/C=C/c1ccccc1)NC(=S)Nc1ccc(CN2CCOCC2)cc1
AC50 [2]: 14.1 µM [rising, partial curve]

O=C(CSCc1nc2cccnc2n1C1CCCCC1)NCc1cccc(Br)c1
AC50 [1]: 0.0355 µM [rising, full curve, poor fit] | AC50 [2]: 0.224 µM [rising, full curve, poor fit]

CC(C)(C)C(=O)NCCc1nc2ccccc2n1CC(=O)c1ccc(Cl)cc1
AC50 [2]: 11.2 µM [rising, single point]

Cc1ccc2scc(N3CCN(c4ccccc4)CC3)c(=O)c2c1
AC50 [2]: 20 µM [rising, single point]

CCOCCCNC(=O)c1cc(Sc2ccc(F)cc2)nc2ccccc12
AC50 [2]: 35.5 µM [rising, single point]

CS(=O)(=O)c1nc(-c2ccco2)cc(C(F)(F)F)n1
AC50 [1]: 11.2 µM [rising, single point]

N/C(=N\c1nc2c(c(=O)[nH]1)CCC2)Nc1cccc(Cl)c1
AC50 [2]: 31.6 µM [rising, single point]

CC(=O)Nc1ccccc1C(=O)N1CCN(c2cccc(C)c2C)CC1
AC50 [1]: 2.82 µM [falling, partial curve, poor fit]

CCOCCCNC(=O)CN1C(=O)CSc2ccccc21
AC50 [2]: 3.16 µM [rising, single point]

COc1ccc(-n2nc(C)cc2N)cc1
AC50 [2]: 11.2 µM [falling, partial curve, poor fit]
